According to the RNAGym collection of RNA variant scans (doi:10.1126/science.aae0568):
Variants at the floor of the assay are shown more often than the library holds them.

B1: tRNA (parent)
chain: GUUCCGUUGGCGUAAUGGUAACGCGUCUCCCUCCUAAGGAGAAGACUGCGGGUUCGAGUCCCGUACGGAACG

Variants of: B1
Experiment: yeast fitness relative to wild type (ratio to wild type); higher = fitter; tRNA-Arg(CCU), competitive growth, 37 C, YPD
In short: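 Gene amplicons from the start population and from each of six end populations were read by 100-nucleotide paired-end sequencing. Those end populations came from pooled Saccharomyces cerevisiae strains carrying tRNA-Arg(CCU) gene variants at the native locus, competed in YPD at 37°C for 24 hours. Fitness relative to wild type was worked out from changes in genotype frequencies. Genotypes needed ≥ 100 starting reads, and estimates < 0.5 were set to 0.5.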

GUUUCGUUGGCGUUAUGGUAACGCGUCUCCCUCCUUAGGAGAAGACUGCGGGUUCGAGUCCCGUUCGGAACG [C4U A14U A36U A65U] and GUUUCGUUGGCGUUAUGGUAACGCGUCUCCCUCCUAGGGAGAAGACUGCGGGUUCGAGUCCCGUACGGAACG [C4U A14U A37G] cannot be ordered by yeast fitness: ≤ 0.5 for the first, ≤ 0.5 for the second.

GUUUCGUUGGCGUUAUGGUAACGCGUCUCCCUUUUAAAGAGAAGACUGCGAGUUAGAGUCCCGUUCGGAACG [C4U A14U C33U C34U G38A G51A C55A A65U] and GUUUCGUUGGCGUACUGGUAACGCGUCUGGCUCCUAAGGAGACGACUGCGGGUUCGAGUCCCGUACGGAACG [C4U A15C C29G C30G A43C] cannot be ordered by yeast fitness: ≤ 0.5 for the first, ≤ 0.5 for the second.

GUUUCGUUGGCGUACUGGUAACGCGUCUCCAUCCUAAGGAGAAGACUGCGGGUUCGAGUCCCCUACGGAACG [C4U A15C C31A G63C] and GUUUCGUUGGCGUACAGGUAACGCGUCUCGCUCCUAAAGAGAAGACUGCGGGUUCGAGUCUCGUACGGCACG [C4U A15C U16A C30G G38A C61U A69C] cannot be ordered by yeast fitness: ≤ 0.5 for the first, ≤ 0.5 for the second.

GUUUCGUUGGCGUAGUGGUAGCGCGUCUCCCUCGUAAGGAGAAGGCUGCGGGUUCGAGUCCCGUCCGGAACG [C4U A15G A21G C34G A45G A65C] and GUUUCGUUGGCGUAUUGGUAACGCGUCCCCCUCCUAAGGAGAAGACUGCGGGUUCGGGUCCCGUACGGAACG [C4U A15U U28C A57G] cannot be ordered by yeast fitness: ≤ 0.5 for the first, ≤ 0.5 for the second.

First: GUUUCGUUGGCGUAAUGGUGACGCGUCUCCCUCCUAAGGAGAAGACUGCGGGUUCGAGUCCCGUACGGAACG [C4U A20G]
Second: GUUUCGUUGGCGUAAUGGUUACGCCUCUCCCUCCUAAGGAGAAGACUGCGGGUUCGAGUGCCGUACGGAACG [C4U A20U G25C C60G]
The yeast fitness of the first is higher: 0.979 for the first, ≤ 0.5 for the second.

GUUUCGUUGGCGUAAUGGUUACGCGUCUCCCUCCAAAGGAGAAGACUGCGGGUUCGAGUCCCGUACGGAACG [C4U A20U U35A] and GUUUCGUUGGCGUAAUGGUAGUGCGUCUCCCUCCUAAGGAGAAGACUGCGGGUUCGAGUCCCGUCCGGAACG [C4U A21G C22U A65C] cannot be ordered by yeast fitness: ≤ 0.5 for the first, ≤ 0.5 for the second.

First: GUUUCGUUGGCGUAAUGGUAGCGCGUCUCCCUCCUAAGGAGAAGAAUGCGGGUUCGAGUCCCGUACGUAACG [C4U A21G C46A G68U]
Second: GUUUCGUUGGCGUAAUGGUAUCGGGUCUCCCUCCUAAGGAGAAGACCGCGGGUUCGAGUCCCGUACGGAACG [C4U A21U C24G U47C]
The yeast fitness of the first is higher: 0.574 for the first, ≤ 0.5 for the second.

GUUUCGUUGGCGUAAUGGUAACGCGUCUCCCUCCUCAGGAGAAGAUUGCGGGUUCGAGUCCCGUACCGAACG [C4U A36C C46U G67C] and GUUUCGUUGGCGUAAUGGUAACGCGUCUCCCUCCUCAGGAGAAGACUGCGGGUUCGAGCCCCGUACGGAACG [C4U A36C U59C] cannot be ordered by yeast fitness: ≤ 0.5 for the first, ≤ 0.5 for the second.

Compared with GUUUCGUUGGCGUAAUGGUAACGCGUCUCCCUCCUACGGACAAGACUGCGGGUUCGAGUCCCGUACGGAACG [C4U A37C G41C], GUUUCGUUGGCGUAAUGGUAACGCGUCUCCCUCCUAGGCAGAAGACUGCGGGUUCGAGUCUCGUACGGAACG [C4U A37G G39C C61U] is lower in yeast fitness: 0.577 for the first, ≤ 0.5 for the second.

GUUUCGUUGGCGUAAUGGUAACGCGUCUCCCUCCUAAGGAGGAGACUGCGCGUUCGAGGCCCGUACGGAACG [C4U A42G G51C U59G] and GUUUAGUUGGCGUAUUGGUAACGCGUCUCCCUCUUAAGGAGAAGACUGCGGGUCCGAGUCCUGUACGGAACG [C4U C5A A15U C34U U54C C62U] cannot be ordered by yeast fitness: ≤ 0.5 for the first, ≤ 0.5 for the second.

GUUUAGUUGGCGUAAUGGUAACGCGUCUCCCUCCUUAGCAGAAGACUGCGGGUUCGAGUACCAUACGAAACG [C4U C5A A36U G39C C60A G63A G68A] and GUUUGGUUGGCGUAUUGGUAAGGCGUCUCUCUCCUAAGGAGAAGACUGCGGGUUCGAGUCCCGUACGGAACG [C4U C5G A15U C22G C30U] cannot be ordered by yeast fitness: ≤ 0.5 for the first, ≤ 0.5 for the second.

GUUUGGUUGGCGUAAUGGUAACGCGUCUGCGUCCUACGGAGAAGACUGCGGGUUCGCGUCCUGUACGGAACG [C4U C5G C29G C31G A37C A57C C62U] and GUUUGGCUGGGGUAAUGGUAACGCGUCUCCCUCCUAAGGGGAAGACUGCGGGUUCGUGUCCCGUACGGAACG [C4U C5G U7C C11G A40G A57U] cannot be ordered by yeast fitness: ≤ 0.5 for the first, ≤ 0.5 for the second.

GUUUGGUCGGCGUAAUGGUAACGCGUCGCCCUCUUAAGGAGAAGACUGCGGGAUCCAGUCCCGUACGGAACG [C4U C5G U8C U28G C34U U53A G56C] and GUUUCGUUGGAGUAAUGGUAACGCGUCUACCUCCUAAGGAGAAGACUGCGGGUACGUGUCCCGUACGGAACG [C4U C11A C29A U54A A57U] cannot be ordered by yeast fitness: ≤ 0.5 for the first, ≤ 0.5 for the second.

GUUUCGUUGGAGUAAUGGUAACGCGUCUCCCUCCUAAGAAGAAGACUGCGAGUUCGAGUCCCGUACCGAACG [C4U C11A G39A G51A G67C] and GUUUCGUUGGGGUAAUGGUAACGCGUCUACCUCCUAAGGAGAAGACUGCGGGUACGUGUCCCGUACGGAACG [C4U C11G C29A U54A A57U] cannot be ordered by yeast fitness: ≤ 0.5 for the first, ≤ 0.5 for the second.

GUUUCGUUGGGGUAAUGGUAACGCGUCUACCUCCUAAGGAGAAGACUGCGGGUACGAAUCCCGUACGGAUCG [C4U C11G C29A U54A G58A A70U] and GUUUCGUUGGUGUAAUGGUAAGGCGUCUCCCUCCUAAGGAGAAGACUGCGGGUUCGAGUCCCGUACGGAUCG [C4U C11U C22G A70U] cannot be ordered by yeast fitness: ≤ 0.5 for the first, ≤ 0.5 for the second.

GUUUCGUUGGUGUAAUGGUAAGGCGUCUCCCUCCUAAGGAGAAGACUGCGGGUUCGAGUCACGUACGGAACG [C4U C11U C22G C61A] and GUUUCGUUGGUGUAAUGGUAACGCGUCUCGCUCCUAAGGAGAAGACUGCGGGUUCGAGUCCCGUACGGAACG [C4U C11U C30G] cannot be ordered by yeast fitness: ≤ 0.5 for the first, ≤ 0.5 for the second.

GUUUCGUUGGUGUAAUGGUAACCCGUCUCCCUCCUAAGGAGACGACUGCGGGUUCGAGUCCCGUACGGAACG [C4U C11U G23C A43C] and GUUUCGUUGGUGUAAUGGUAACGCGGCCCCCUCCUAGGGAAAAGACUGGGGGUUCGAGUCCCGUACGGAACG [C4U C11U U26G U28C A37G G41A C49G] cannot be ordered by yeast fitness: ≤ 0.5 for the first, ≤ 0.5 for the second.

GUUUCGUUGGCGUAAUGGUAAGGCGUCACCCUCCUUAGGAGAAGACUGCGGGUUGGAGUCCUGUACGGAACG [C4U C22G U28A A36U C55G C62U] and GUUUCGUUGGCGUAAUGGUAACGAGUCUCCAUCCUAAGGAGAAGACUGCGGGUUCGAGUCCCGUACGGAACG [C4U C24A C31A] cannot be ordered by yeast fitness: ≤ 0.5 for the first, ≤ 0.5 for the second.

GUUUCGUUGGCGUAAUGGUAACGUGUCUCCCUCCUCAGGAGAAGACUGCGGGUUCGAGUCGCGUACGGAACG [C4U C24U A36C C61G] and GUUUCGUUGGCGUAAUGGUAACGUGUCUCCCUCCUAAGGAGAAGACUGCGGGUUUGAGUCCCGUACGGAACG [C4U C24U C55U] cannot be ordered by yeast fitness: ≤ 0.5 for the first, ≤ 0.5 for the second.
